# From publication PMC6925144, “A prospective compound screening contest identified broader inhibitors for Sirtuin 1” (Scientific Reports, 2019)
# By UniProt entry, the sequences of proteins in these tests, tags left out. Residues count along the entry.
# UniProt Q96EB6, 2-747 limits assumed: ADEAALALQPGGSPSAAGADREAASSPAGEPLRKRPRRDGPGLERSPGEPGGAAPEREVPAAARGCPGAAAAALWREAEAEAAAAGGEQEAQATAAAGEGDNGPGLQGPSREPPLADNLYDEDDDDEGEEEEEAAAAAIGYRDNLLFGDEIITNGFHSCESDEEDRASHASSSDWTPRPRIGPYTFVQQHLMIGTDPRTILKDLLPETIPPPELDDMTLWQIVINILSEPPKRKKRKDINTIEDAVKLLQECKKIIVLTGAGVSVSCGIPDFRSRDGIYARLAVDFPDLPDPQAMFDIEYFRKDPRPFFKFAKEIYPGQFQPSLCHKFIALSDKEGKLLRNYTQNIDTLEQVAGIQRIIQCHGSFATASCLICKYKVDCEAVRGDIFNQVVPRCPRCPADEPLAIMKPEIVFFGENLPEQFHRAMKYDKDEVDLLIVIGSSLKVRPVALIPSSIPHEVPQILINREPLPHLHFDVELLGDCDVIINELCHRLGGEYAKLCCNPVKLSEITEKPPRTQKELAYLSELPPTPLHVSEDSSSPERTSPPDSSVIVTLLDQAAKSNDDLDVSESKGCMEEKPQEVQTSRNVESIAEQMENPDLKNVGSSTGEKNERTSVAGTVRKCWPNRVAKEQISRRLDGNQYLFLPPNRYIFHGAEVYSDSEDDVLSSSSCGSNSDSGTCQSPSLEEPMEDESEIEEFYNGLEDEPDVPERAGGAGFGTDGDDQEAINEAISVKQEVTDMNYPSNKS
# Whole data set: some 3,200 compounds, median “TSA(with NAD+) / Primary screening (TSA) / delta Tm (K)” near -0.04, cut for the highest 2% near 0.37. This is one part of the list.
# Target: NAD-dependent deacetylase Sirtuin 1 (human, UniProt Q96EB6)
# Assay: primary screen, delta tm
# Parameters: single well (n = 1, as 'the same TSA')
# Details: 10 µM
row,Compound,TSA(with NAD+) / Primary screening (TSA) / delta Tm (K)
1,CC(C)(O)Cn1cnc2c(N3CCOCC3)ncnc21,-0.05
2,C=CCOc1ccc(C(=O)C2=C(O)C(=O)N(CCN3CCOCC3)C2c2cccs2)cc1 (centres unmarked),-0.01
3,O=C(CSc1nnc(-c2ccccc2Br)[nH]1)NCCN1C(=O)CSC1=O,0.06
4,NC(=O)c1ccc(OCC(=O)NCC2CN(Cc3ccccc3)CCO2)cc1 (centres unmarked),0.02
5,COc1ccc(-c2noc(CCC(=O)OCc3cc(=O)oc4cc(NC(C)=O)ccc34)n2)cc1,-0.01
6,COc1ccc(NC(=O)COc2ccc(C(=O)NCC34CC5CC(CC(C5)C3)C4)cc2OC)cc1,-0.01
7,Nn1c(S)nnc1COc1ccc(F)cc1,-0.06
8,CCC(=O)Nc1cccc(C(=O)NNC(=O)c2nc(-c3ccccc3)n(-c3ccccc3)n2)c1,-0.06
9,CCOc1ccc(C2C(C(=O)c3ccco3)=C(O)C(=O)N2CCCN2CCOCC2)cc1OCC (centres unmarked),-0.01
10,Cc1noc(C)c1CC(=O)Nc1ccccc1-c1nc(C(C)C)n[nH]1,-0.24
11,CCOCCn1ccc2cc(OC)c(F)cc2c1=O,-0.09
12,NCCN1CCNCC1,-0.01
13,N#CC1=C(N)Oc2c(ccc3ccccc23)C1c1ccccc1F (centres unmarked),-0.01
14,CC(C)Oc1ccc(C(=O)C2=C(O)C(=O)N(CCCN3CCOCC3)C2c2ccccc2F)cc1 (centres unmarked),0.01
15,C=CCOc1ccc(C2C(C(=O)c3cccs3)=C(O)C(=O)N2CCCN2CCOCC2)cc1 (centres unmarked),-0.01
16,O=C(CCc1cccnc1)Nc1ccccc1N1CCc2ccccc2C1,-0.14
17,COCc1noc(CN2CCCCC2c2cc3ccccc3[nH]2)n1 (centres unmarked),-0.01
18,CCCOc1ccc(C(=O)C2=C(O)C(=O)N(CCCN3CCOCC3)C2c2ccco2)cc1 (centres unmarked),-0.05
19,O=C(CN1CCN(C(=O)c2ccc(-c3cc(Cl)ccc3Cl)o2)CC1)Nc1ccccc1Cl,-0.03
20,Cc1ccc(S(=O)(=O)NCC(=O)NCC(=O)OCC(=O)c2ccc(C3CCCCC3)cc2)cc1C,0.06
21,Cc1ccc(NC(=O)c2cccc(S(=O)(=O)N(C)c3ccc(C)cc3)c2)cc1,0.29
22,Cc1[nH]nc(C(N)=O)c1NC(=O)Cn1ccc2ccc(Cl)cc21,0.05
23,CC1CCN(CCNC(=O)NC(C)c2ccc3c(c2)CC(=O)N3)CC1 (centres unmarked),0.02

# A section of the results above, for reference:
row,Compound,TSA(with NAD+) / Primary screening (TSA) / delta Tm (K)
19,O=C(CN1CCN(C(=O)c2ccc(-c3cc(Cl)ccc3Cl)o2)CC1)Nc1ccccc1Cl,-0.03
20,Cc1ccc(S(=O)(=O)NCC(=O)NCC(=O)OCC(=O)c2ccc(C3CCCCC3)cc2)cc1C,0.06
21,Cc1ccc(NC(=O)c2cccc(S(=O)(=O)N(C)c3ccc(C)cc3)c2)cc1,0.29
22,Cc1[nH]nc(C(N)=O)c1NC(=O)Cn1ccc2ccc(Cl)cc21,0.05

# Remaining list, next part.

row,Compound,TSA(with NAD+) / Primary screening (TSA) / delta Tm (K)
1,CC(=O)Nc1ccc(C(=O)COC(=O)c2ccccc2-c2ncc(-c3ccccc3)o2)cc1,-0.06
2,Cc1ccc(-c2sc(-c3ccccc3)nc2CC(=O)NC2(C)CCS(=O)(=O)C2)cc1 (centres unmarked),-0.33
3,CS(=O)(=O)NCCSc1nnc(NCC2CCCO2)s1 (centres unmarked),-0.09
4,COC(=O)c1cc(OC)ccc1NC(=O)Cn1c(-c2ccc(F)cc2)c(C)sc1=O,-0.11
5,O=C(c1cn(Cc2ccccc2)nc1-c1cccs1)N1CCCC1,-0.14
6,COc1ccc(C(=O)NC2CCCCCC2C(N)=O)c(F)c1 (centres unmarked),-0.01
7,CC(N)CC(=O)O (centres unmarked),0.05
8,CC(C)(C)c1ccccc1NC(=O)C1CC(=O)N(Cc2ccccc2)C1 (centres unmarked),-0.01
9,Cc1ccc(C)c(C(=O)Nc2cccc(S(=O)(=O)N3CCCCCC3)c2)c1,0.05
10,O=c1[nH]c(=O)c2[nH]c(=O)[nH]c2[nH]1,0.05
11,N#Cc1ccc(NC(=O)CSc2nnc(NCc3ccco3)s2)cc1,-0.04
12,Cc1ccc(-c2cc(-c3ccccc3)c3cc([N+](=O)[O-])ccc3n2)cc1,0.08
13,CN(CCC(=O)N1CCc2ccccc21)Cc1ccc2ccccc2c1,0.02
14,CS(=O)(=O)NCC(=O)O,0.17
15,CN(C)c1ccc(NC(=O)c2cccc(S(=O)(=O)N(C)c3cccc(Cl)c3)c2)cc1,0.06
16,CC(C)CNc1nnc(S)s1,0.07
17,Cn1cc(C(=O)OCc2ccc(C(=O)N3CCCC3)cc2)c2ccccc21,-0.11
18,COc1ccc(N(C)S(=O)(=O)c2cccc(C(=O)Nc3sc4c(c3C(N)=O)CCC(C)C4)c2)cc1 (centres unmarked),0.02
19,CC(C)C(=O)NCCNC(=O)Nc1cc(C(N)=O)ccc1F,-0.13
20,Cc1ccc(Cn2c(=O)c3ccccc3n3c(SCC4CCCO4)nnc23)cc1 (centres unmarked),-0.04
21,Cc1cccn2c(=O)c3cc(C(=O)N4CCc5ccccc54)sc3nc12,0.08
22,Cc1nc(N2CCN(CCN3CCCC3)CC2)c2c(-c3ccccc3)csc2n1,-0.01
23,FC(F)(F)c1cc(N2CCN(Cc3nc4ccccc4[nH]3)CC2)n2ncnc2n1,-0.23

row,Compound,TSA(with NAD+) / Primary screening (TSA) / delta Tm (K)
1,Cc1ccc2[nH]c(C)c(CC(=O)OCC(=O)N3CCC(C(N)=O)CC3)c2c1,0.03
2,COCCNCCCN,-0.18
3,O=C(Nc1cccc(S(=O)(=O)N2CCOCC2)c1)C1c2ccccc2Oc2ccccc21,-0.09
4,Cc1nn(Cc2ccccc2Cl)c(C)c1-c1nc(-c2ccccc2)c(-c2ccccc2)[nH]1,-0.01
5,CC(C)(C)OC(=O)NCCOc1cccc(NS(=O)(=O)c2ccc3c4c(cccc24)C(=O)N3)c1,0.07
6,COCCNc1ncnc2ccsc12,0.05
7,CC(O)CNCc1cn(-c2ccccc2)nc1-c1cc2ccccc2o1 (centres unmarked),-0.04
8,O=C(c1nn(Cc2ccccc2)c(=O)c2ccccc12)N1CCN(Cc2ccncc2)CC1,0.07
9,COc1ccc2cc(CNC(=O)C3=COCCO3)ccc2c1,-0.38
10,CCCCc1ccc(N2CC(C(=O)N3CCN(c4cnccn4)CC3)CC2=O)cc1 (centres unmarked),-0.13
11,CCOC(=O)c1c(C)[nH]c(C(=O)CN(C)Cc2ccc(C)cc2)c1C,-0.05
12,CC(C)n1cnnc1C1CCN(c2ncc(C(N)=O)cc2Cl)CC1,0.03
13,O=C1CSc2ccc(C(=O)Nc3ccc(N4CCN(Cc5ccccc5)CC4)cc3)cc2N1,-0.23
14,O=C(NCc1cccnc1Oc1cccc(F)c1)N1CCOc2ccccc2C1,-0.01
15,COCC(N)CN (centres unmarked),0.05
16,Cc1nn(-c2ccccc2)c(C)c1CCC(=O)Nc1c(C)n(C)n(-c2ccccc2)c1=O,0.05
17,CCN(CC)CCCNC(=O)Nc1ccc(S(N)(=O)=O)cc1,-0.13
18,CNC(=O)CN(Cc1ccccc1)S(=O)(=O)c1ccc(Cl)cc1,-0.03
19,Cc1cccc(NS(=O)(=O)c2cccc(C(=O)OCC(=O)NC(=O)NC34CC5CC(CC(C5)C3)C4)c2)c1,0.46
20,O=C(Cc1c(Cl)cccc1Cl)Nc1ccc(N2CCN(Cc3ccccc3)CC2)cc1,0.02
21,CCC(=O)N(c1nn(CN(C)Cc2c(C)nn(C3CCS(=O)(=O)C3)c2C)c(=S)s1)C1CC1 (centres unmarked),-0.22
22,CCC(=O)NC(C)C(=O)NCC1CCCO1 (centres unmarked),-0.36
23,NS(=O)(=O)Cc1cccc(Cl)c1,-0.13

row,Compound,TSA(with NAD+) / Primary screening (TSA) / delta Tm (K)
1,COc1cc(CN(C)C(=O)Cn2cnc3ccccc3c2=O)ccc1OCc1ccccc1,0.06
2,Cc1ccc([N+](=O)[O-])cc1S(=O)(=O)Nc1ccc(C(=O)OC(C)C(=O)NC23CC4CC(CC(C4)C2)C3)cc1 (centres unmarked),0.76
3,NC(=O)C1CCN(C(=O)c2ccc(-c3ccc(Cl)cc3)s2)C1 (centres unmarked),-0.11
4,CCCCn1nnnc1COC(=O)c1cccc(S(=O)(=O)N(C)c2cccc(Cl)c2)c1,-0.12
5,CCN(CC)c1ncnc2c1oc1ccccc12,-0.03
6,O=C(O)c1ccc(S(=O)(=O)N2CCC(c3ccccc3)C2)c(F)c1 (centres unmarked),-0.02
7,CC(C)CNc1ncnc2c1oc1ccccc12,-0.05
8,NC(=O)C1CN(c2nc(C3CC3)nc3sc4c(c23)CCCC4)CCO1 (centres unmarked),-0.19
9,CCC(C)c1ccc(C(Nc2ccc3nnnn3n2)C(C)C)cc1 (centres unmarked),0.07
10,CC(CNS(=O)(=O)c1ccc(CCC(=O)O)cc1)c1nc2ccccc2n1C(F)F (centres unmarked),0.01
11,CCOc1cccc(C=C2C(=O)NC(=S)NC2=O)c1,-0.01
12,Nc1cc(C(F)(F)F)ccc1O,-0.61
13,Cc1nn(C)c2ncc(S(=O)(=O)N(C)c3cccc(C#N)c3)cc12,0.03
14,Cc1nc(N2CCN(C(=O)CCc3ccccc3)CC2)c2cc[nH]c2n1,-0.11
15,CN(c1ccc(Oc2ccccc2)cc1)S(=O)(=O)c1cc(C(N)=O)n(C)c1,0.02
16,COC(=O)c1ccc(C2NC(=O)NC3=C2C(=O)N(CCO)C3)cc1 (centres unmarked),-0.03
17,CC(C)(C)NCCN,-0.01
18,CCCCc1ccc(NC(=O)c2cccc(S(=O)(=O)N(C)c3cccc(Cl)c3)c2)cc1,-0.16
19,Cc1ccc(-c2cc(NC(=O)CSc3nnc(NCc4ccco4)s3)on2)cc1,-0.08
20,COc1ccc(C2C(C(=O)c3ccc(C)cc3)=C(O)C(=O)N2CCCN2CCOCC2)cc1 (centres unmarked),-0.22
21,CCNC(=O)c1cccc(NC(=O)C2CCN(S(=O)(=O)c3cc(C(C)(C)C)ccc3C)CC2)c1,0.16
22,COc1ccc(Br)cc1/C=C1/Oc2cc(O)ccc2C1=O,0.16
23,O=C1/C(=C\c2cc3ccccc3nc2N2CCOCC2)Oc2cc(O)ccc21,0.26
